The target in this assay is RAC-alpha serine/threonine-protein kinase (AKT1) (human (endogenous in HUVECs)) (UniProt P31749). In words: co-IP; wild type HUVEC lysate (150 mM NaCl, 0.5% Triton X-100, 0.5% sodium deoxycholate, protease and phosphatase inhibitors); AKT1 antibody on Protein G magnetic beads, overnight at +4 °C; Western blot; mouse-HRP antibody as negative control. (Immunoblotting shows a protein as a band on a membrane.)

Amino acid sequences for entries named in this document (tags omitted).
UniProt P31749: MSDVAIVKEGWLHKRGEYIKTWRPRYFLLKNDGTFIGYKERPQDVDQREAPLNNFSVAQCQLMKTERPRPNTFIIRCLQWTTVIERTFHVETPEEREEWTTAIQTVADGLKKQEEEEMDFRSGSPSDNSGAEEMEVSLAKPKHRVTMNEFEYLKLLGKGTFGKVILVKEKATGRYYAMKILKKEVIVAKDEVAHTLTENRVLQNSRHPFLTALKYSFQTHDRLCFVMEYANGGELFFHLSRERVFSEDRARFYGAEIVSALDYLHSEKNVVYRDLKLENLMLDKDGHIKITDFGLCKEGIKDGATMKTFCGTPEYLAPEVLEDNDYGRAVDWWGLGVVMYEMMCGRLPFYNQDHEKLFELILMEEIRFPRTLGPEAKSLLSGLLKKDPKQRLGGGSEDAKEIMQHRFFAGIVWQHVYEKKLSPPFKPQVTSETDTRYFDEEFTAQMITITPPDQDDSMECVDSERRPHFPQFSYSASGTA

No constants are given. Whether binding was seen depends on the method and setting. In cells and extracts the contact can be indirect. Some binding calls cover weakened binding; strength is not graded here.

B1: ORP7 (protein, UniProt Q9BZF2 1-842)
chain: MDFQERDPPFLPESAQSSKPSSAQQASELWEVVEEPRVRLGTEGVMPERQEGHLLKKRKWPLKGWHKRYFVLEDGILHYATTRQDITKGKLHGSIDVRLSVMSINKKAQRIDLDTEDNIYHLKIKSQDLFQSWVAQLRAHRLAHRLDMPRGSLPSTAHRKVPGAQLPTAATASALPGLGPREKVSSWLRDSDGLDRCSHELSECQGKLQELHRLLQSLESLHRIPSAPVIPTHQASVTTERPKKGKRTSRMWCTQSFAKDDTIGRVGRLHGSVPNLSRYLESRDSSGTRGLPPTDYAHLQRSFWALAQKVHSSLSSVLAALTMERDQLRDMHQGSELSRMGVSEASTGQRRLHSLSTSSDTTADSFSSLNPEEQEALYMKGRELTPQLSQTSILSLADSHTEFFDACEVLLSASSSENEGSEEEESCTSEITTSLSEEMLDLRGAERCQKGGCVPGRPMGPPRRRCLPAASGPGADVSLWNILRNNIGKDLSKVSMPVQLNEPLNTLQRLCEELEYSSLLDQASRIADPCERMVYIAAFAVSAYSSTYHRAGCKPFNPVLGETYECERPDRGFRFISEQVSHHPPISACHAESENFAFWQDMKWKNKFWGKSLEIVPVGTVNVSLPRFGDHFEWNKVTSCIHNVLSGQRWIEHYGEVLIRNTQDSSCHCKITFCKAKYWSSNVHEVQGAVLSRSGRVLHRLFGKWHEGLYRGPTPGGQCIWKPNSMPPDHERNFGFTQFALELNELTAELKRSLPSTDTRLRPDQRYLEEGNIQAAEAQKRRIEQLQRDRRKVMEENNIVHQARFFRRQTDSSGKEWWVTNNTYWRLRAEPGYGNMDGAVLW
With B1, the binding entry is on record as “binds”.

These data come from publication PMC11656939.
